# Reference: the supplement of paper PMC8728848
# The other results are listed elsewhere or left out.
# B1: Mincle (Bos taurus) (protein)
# chain: MNSSTSPASQTERRCFSFQLFSWAIAGTSILLLSACFITRCVVTYSIFQLCDEKKFQPPGDSMELSCYNDGSGSVKNCCPLKWFHFQSSCYLFSPDTMSWRASLKNCSSMGAHLVVINTQEEQEFLYYTKPRKKEFYIGLTDQVTEGQWQWVDGTPFTKSLSFWDAGEPNNLVIVEDCATIRDSSNPRQNWNDVPCFFNMFRVCEMPERKI
# Legend:
# Assay in all cases: glycan array binding signal (z-score within array); higher = stronger binding
# Conditions in all cases: glycan notation: IUPAC condensed, linker removed
# [1] = molecular target: Gal(b1-3)GlcNAc(b1-2)Man(a1-3)[Gal(b1-3)GlcNAc(b1-2)Man(a1-6)]Man(b1-4)GlcNAc(b1-4)[Fuc(a1-6)]GlcNAc
# Method in brief: (§1)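 The binding signal is a Z-score computed within each array and averaged over linkers. Arrays of the same protein sequence at different concentrations or buffers were also averaged together. Data originate from 3228 arrays in the Consortium for Functional Glycomics database, kept only where the protein sequence was available.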
# [2] = molecular target: Gal(b1-3)GlcNAc(b1-2)Man(a1-3)[GlcNAc(b1-4)][Gal(b1-3)GlcNAc(b1-2)Man(a1-6)]Man(b1-4)GlcNAc(b1-4)GlcNAc
# Method in brief: as §1
# [3] = molecular target: Gal(b1-3)GlcNAc(b1-2)[Gal(b1-3)GlcNAc(b1-6)]Man(a1-6)[Gal(b1-3)GlcNAc(b1-2)Man(a1-3)]Man(b1-4)GlcNAc(b1-4)GlcNAc
# Method in brief: as §1
# [4] = molecular target: Gal(b1-3)GlcNAc(b1-3)Gal(b1-3)GlcNAc
# Method in brief: as §1
# [5] = molecular target: Gal(b1-3)GlcNAc(b1-3)Gal(b1-4)Glc
# Method in brief: as §1
# [6] = molecular target: Gal(b1-3)GlcNAc(b1-3)Gal(b1-4)GlcNAc
# Method in brief: as §1
# [7] = molecular target: Gal(b1-3)GlcNAc(b1-3)Gal(b1-4)GlcNAc(b1-2)Man(a1-3)[Gal(b1-3)GlcNAc(b1-3)Gal(b1-4)GlcNAc(b1-2)Man(a1-6)]Man(b1-4)GlcNAc(b1-4)GlcNAc
# Method in brief: as §1
# [8] = molecular target: Gal(b1-3)GlcNAc(b1-3)Gal(b1-4)GlcNAc(b1-2)[Gal(b1-3)GlcNAc(b1-3)Gal(b1-4)GlcNAc(b1-6)]Man(a1-6)[Gal(b1-3)GlcNAc(b1-3)Gal(b1-4)GlcNAc(b1-2)Man(a1-3)]Man(b1-4)GlcNAc(b1-4)[Fuc(a1-6)]GlcNAc
# Method in brief: as §1
# [9] = molecular target: Gal(b1-3)GlcNAc(b1-3)Gal(b1-4)GlcNAc(b1-3)Gal(b1-4)GlcNAc(b1-2)[Gal(b1-3)GlcNAc(b1-3)Gal(b1-4)GlcNAc(b1-3)Gal(b1-4)GlcNAc(b1-6)]Man(a1-6)[Gal(b1-3)GlcNAc(b1-3)Gal(b1-4)GlcNAc(b1-3)Gal(b1-4)GlcNAc(b1-2)Man(a1-3)]Man(b1-4)GlcNAc(b1-4)[Fuc(a1-6)]GlcNAc
# Method in brief: as §1
# [10] = molecular target: Gal(b1-3)GlcNAc(b1-3)Gal(b1-4)GlcNAc(b1-6)[Gal(b1-3)GlcNAc(b1-3)]Gal(b1-4)Glc
# Method in brief: as §1
# [11] = molecular target: Gal(b1-3)GlcNAc(b1-3)Gal(b1-4)[Fuc(a1-3)]GlcNAc
# Method in brief: as §1
# [12] = molecular target: Gal(b1-3)GlcNAc(b1-3)Gal(b1-4)[Fuc(a1-3)]GlcNAc(b1-6)[Gal(b1-3)GlcNAc(b1-3)]Gal(b1-4)Glc
# Method in brief: as §1
# [13] = molecular target: Gal(b1-3)GlcNAc(b1-3)GalNAc
# Method in brief: as §1
# [14] = molecular target: Gal(b1-3)GlcNAc(b1-6)Gal(b1-4)GlcNAc
# Method in brief: as §1
# [15] = molecular target: Gal(b1-3)GlcNAc(b1-6)GalNAc
# Method in brief: as §1
# [16] = molecular target: Gal(b1-3)GlcNAc(b1-6)[Gal(b1-3)]GalNAc
# Method in brief: as §1
# Gal(b1-3)GlcNAc6S = molecular target: Gal(b1-3)GlcNAc6S
# Method in brief: as §1
# [17] = molecular target: Gal(b1-3)[Fuc(a1-4)]GlcNAc
# Method in brief: as §1
# [18] = molecular target: Gal(b1-3)[Fuc(a1-4)]GlcNAc(b1-2)Man
# Method in brief: as §1
# [19] = molecular target: Gal(b1-3)[Fuc(a1-4)]GlcNAc(b1-2)Man(a1-3)[Gal(b1-3)[Fuc(a1-4)]GlcNAc(b1-2)Man(a1-6)]Man(b1-4)GlcNAc(b1-4)[Fuc(a1-6)]GlcNAc
# Method in brief: as §1
# [20] = molecular target: Gal(b1-3)[Fuc(a1-4)]GlcNAc(b1-3)Gal(b1-3)[Fuc(a1-4)]GlcNAc
# Method in brief: as §1
# [21] = molecular target: Gal(b1-3)[Fuc(a1-4)]GlcNAc(b1-3)Gal(b1-4)[Fuc(a1-3)]GlcNAc
# Method in brief: as §1
# [22] = molecular target: Gal(b1-3)[Fuc(a1-4)]GlcNAc(b1-6)GalNAc
# Method in brief: as §1
# [23] = molecular target: Gal(b1-3)[GlcNAc(b1-6)]GalNAc
# Method in brief: as §1
# [24] = molecular target: Gal(b1-3)[Neu5Ac(a2-6)]GalNAc
# Method in brief: as §1
# [25] = molecular target: Gal(b1-3)[Neu5Ac(a2-6)]GlcNAc(b1-4)Gal(b1-4)Glc
# Method in brief: as §1
# [26] = molecular target: Gal(b1-3)[Neu5Ac(b2-6)]GalNAc
# Method in brief: as §1
# Gal(b1-4)Gal = molecular target: Gal(b1-4)Gal
# Method in brief: as §1
# [27] = molecular target: Gal(b1-4)GalNAc(a1-3)[Fuc(a1-2)]Gal(b1-4)GlcNAc
# Method in brief: as §1
# [28] = molecular target: Gal(b1-4)GalNAc(b1-3)[Fuc(a1-2)]Gal(b1-4)GlcNAc
# Method in brief: as §1
# Gal(b1-4)Glc = molecular target: Gal(b1-4)Glc
# Method in brief: as §1
# Gal(b1-4)Glc6S = molecular target: Gal(b1-4)Glc6S
# Method in brief: as §1
# Gal(b1-4)GlcNAc = molecular target: Gal(b1-4)GlcNAc
# Method in brief: as §1
# [29] = molecular target: Gal(b1-4)GlcNAc(a1-6)Gal(b1-4)GlcNAc
# Method in brief: as §1
# Gal(b1-4)GlcNAc(b1-2)Man = molecular target: Gal(b1-4)GlcNAc(b1-2)Man
# Method in brief: as §1
# [30] = molecular target: Gal(b1-4)GlcNAc(b1-2)Man(a1-3)Man(b1-4)GlcNAc(b1-4)GlcNAc
# Method in brief: as §1
# [31] = molecular target: Gal(b1-4)GlcNAc(b1-2)Man(a1-3)[Gal(b1-4)GlcNAc(b1-2)Man(a1-6)]Man(b1-4)GlcNAc(b1-4)GlcNAc
# Method in brief: as §1
# [32] = molecular target: Gal(b1-4)GlcNAc(b1-2)Man(a1-3)[Gal(b1-4)GlcNAc(b1-2)Man(a1-6)]Man(b1-4)GlcNAc(b1-4)[Fuc(a1-6)]GlcNAc
# Method in brief: as §1
# [33] = molecular target: Gal(b1-4)GlcNAc(b1-2)Man(a1-3)[Gal(b1-4)GlcNAc(b1-2)Man(a1-6)][Gal(b1-4)GlcNAc(b1-4)]Man(b1-4)GlcNAc(b1-4)[Fuc(a1-6)]GlcNAc
# Method in brief: as §1
# [34] = molecular target: Gal(b1-4)GlcNAc(b1-2)Man(a1-3)[Gal(b1-4)GlcNAc(b1-2)Man(a1-6)][GlcNAc(b1-4)]Man(b1-4)GlcNAc(b1-4)[Fuc(a1-6)]GlcNAc
# Method in brief: as §1
# [35] = molecular target: Gal(b1-4)GlcNAc(b1-2)Man(a1-3)[GlcNAc(b1-2)Man(a1-6)]Man(b1-4)GlcNAc(b1-4)GlcNAc
# Method in brief: as §1
# [36] = molecular target: Gal(b1-4)GlcNAc(b1-2)Man(a1-3)[GlcNAc(b1-4)][Gal(b1-4)GlcNAc(b1-2)Man(a1-6)]Man(b1-4)GlcNAc(b1-4)GlcNAc
# Method in brief: as §1
# [37] = molecular target: Gal(b1-4)GlcNAc(b1-2)Man(a1-3)[Man(a1-6)]Man(b1-4)GlcNAc(b1-4)GlcNAc
# Method in brief: as §1
# [38] = molecular target: Gal(b1-4)GlcNAc(b1-2)Man(a1-6)Man(b1-4)GlcNAc(b1-4)GlcNAc
# Method in brief: as §1
# [39] = molecular target: Gal(b1-4)GlcNAc(b1-2)Man(a1-6)[GlcNAc(b1-2)Man(a1-3)]Man(b1-4)GlcNAc(b1-4)GlcNAc
# Method in brief: as §1
binder,measurement,setting,value
B1,glycan array binding signal (z-score),[1],0.025
same,glycan array binding signal (z-score),[2],-0.111
same,glycan array binding signal (z-score),[3],0.677
same,glycan array binding signal (z-score),[4],-0.276
same,glycan array binding signal (z-score),[5],-1.08
same,glycan array binding signal (z-score),[6],-0.412
same,glycan array binding signal (z-score),[7],0.271
same,glycan array binding signal (z-score),[8],0.819
same,glycan array binding signal (z-score),[9],1.13
same,glycan array binding signal (z-score),[10],0.097
same,glycan array binding signal (z-score),[11],0.49
same,glycan array binding signal (z-score),[12],-0.318
same,glycan array binding signal (z-score),[13],-0.057
same,glycan array binding signal (z-score),[14],-0.635
same,glycan array binding signal (z-score),[15],0.492
same,glycan array binding signal (z-score),[16],-0.596
same,glycan array binding signal (z-score),Gal(b1-3)GlcNAc6S,-0.773
same,glycan array binding signal (z-score),[17],-0.531
same,glycan array binding signal (z-score),[18],1.34
same,glycan array binding signal (z-score),[19],0.051
same,glycan array binding signal (z-score),[20],-0.618
same,glycan array binding signal (z-score),[21],-0.683
same,glycan array binding signal (z-score),[22],1.35
same,glycan array binding signal (z-score),[23],0.055
same,glycan array binding signal (z-score),[24],-1.03
same,glycan array binding signal (z-score),[25],-0.603
same,glycan array binding signal (z-score),[26],-0.475
same,glycan array binding signal (z-score),Gal(b1-4)Gal,-0.069
same,glycan array binding signal (z-score),[27],-0.586
same,glycan array binding signal (z-score),[28],-0.357
same,glycan array binding signal (z-score),Gal(b1-4)Glc,-0.282
same,glycan array binding signal (z-score),Gal(b1-4)Glc6S,0.6
same,glycan array binding signal (z-score),Gal(b1-4)GlcNAc,-0.249
same,glycan array binding signal (z-score),[29],-0.729
same,glycan array binding signal (z-score),Gal(b1-4)GlcNAc(b1-2)Man,-0.228
same,glycan array binding signal (z-score),[30],-0.512
same,glycan array binding signal (z-score),[31],-0.633
same,glycan array binding signal (z-score),[32],0.943
same,glycan array binding signal (z-score),[33],-0.91
same,glycan array binding signal (z-score),[34],-0.101
same,glycan array binding signal (z-score),[35],-0.617
same,glycan array binding signal (z-score),[36],-0.334
same,glycan array binding signal (z-score),[37],-0.043
same,glycan array binding signal (z-score),[38],-0.442
same,glycan array binding signal (z-score),[39],-0.48

# A second format for some results above.
binder	measurement	setting	value
B1	glycan array binding signal (z-score)	[32]	0.943
same	glycan array binding signal (z-score)	[33]	-0.91
